In the supplement of paper PMC11006884:
This list holds what a sample rich in targets with a hit left over. This is a noisy data set. The entries are a selection whose mix differs from that of the whole data set.

These targets were tested with COC(=O)/C=C/c1ccccc1 [methyl cinnamate] (assay: log2 ratio of iodoacetamide-alkyne labeling of the cysteine site, DMSO over compound (competition); higher = stronger covalent engagement of the cysteine by the compound, active = 1 or more). Conditions: 500 µM; treatment time 1 h; system: HEK293T cell lysate.
Outline: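 HEK293T lysate at 2 mg/mL was treated with vehicle or electrophile (500 µM) for 1 h at ambient temperature, then labelled with iodoacetamide alkyne (1 h), clicked to sCIP-TMT reagents, pooled, digested with trypsin overnight at 37 °C, enriched on streptavidin and eluted with acid. Peptides were analysed by Orbitrap Eclipse LC-MS/MS with FAIMS and quantified in FragPipe, using duplicate channels and three replicates, with cysteines quantified in only one replicate excluded. The log2 competition ratio for each cysteine is the mean control-channel reporter intensity divided by the mean compound-channel reporter intensity.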

log2 ratio of iodoacetamide-alkyne labeling, inactive:
MYBBP1A C942 (UniProt Q9BQG0) 0.306
NUDCD1 C376 (UniProt Q96RS6) 0.327
RPRD1A C220 (UniProt Q96P16) 0.239
MYBBP1A C890 (UniProt Q9BQG0) 0.0293
DDX50 C603 (UniProt Q9BQ39) -0.121
CCT7 C364 (UniProt Q99832) 0.0488
ARAP1 C900 (UniProt Q96P48) 0.203
ACO2 C385 (UniProt Q99798) 0.35
SECISBP2 C719 (UniProt Q96T21) -0.138
SH3GL1 C147 (UniProt Q99961) 0.186
SPEN C3632 (UniProt Q96T58) 0.0021
CCT7 C310 (UniProt Q99832) 0.111
NEK1 C276 (UniProt Q96PY6) 0.0187
UniProt Q96JG6_C136 0.0399
MYBBP1A C678 (UniProt Q9BQG0) 0.058
VRK1 C50 (UniProt Q99986) 0.00473
CNN2 C175 (UniProt Q99439) 0.466
IFT140 C1360 (UniProt Q96RY7) 0.229
UniProt Q96L50_C246 0.337
RBM14 C90 (UniProt Q96PK6) 0.15
MED15 C618 (UniProt Q96RN5) 0.0144
EHMT2 C617 (UniProt Q96KQ7) 0.403
CPNE1 C4 (UniProt Q99829) -0.11
UniProt Q9BQ61_C165 0.55
OSBPL9 C720 (UniProt Q96SU4) 0.0182
POP1 C530 (UniProt Q99575) 0.4
FUBP3 C310 (UniProt Q96I24) -0.108
PUS7 C38 (UniProt Q96PZ0) 0.0488
UHRF1 C759 (UniProt Q96T88) 0.0265
KIF2C C245 (UniProt Q99661) 0.39
EP400 C162 (UniProt Q96L91) 0.268
MIPEP C518 (UniProt Q99797) -0.351
UniProt Q96NC0_C87 -0.174
EHMT2 C596 (UniProt Q96KQ7) -0.0532
RNF2 C72 (UniProt Q99496) 0.22
DOCK6 C1853 (UniProt Q96HP0) 0.165
PTPN18 C310 (UniProt Q99952) 0.277
CRBN C78 (UniProt Q96SW2) 0.0986

Random excerpt: 2 records from the list, in no set order.
log2 ratio of iodoacetamide-alkyne labeling, inactive:
CPNE1 C4 (UniProt Q99829) -0.11
UniProt Q9BQ61_C165 0.55
